Results are given in words; binding and its absence hold for the method and conditions named. In cells and extracts the contact can be indirect. Some binding calls cover weakened binding; strength is not graded here.
Target: clathrin (from HeLa cell lysate) (human (HeLa cells)) (UniProt Q00610)
Experiment: GST pull-down from HeLa cell lysate, immunoblot

Sequences of proteins named here, by UniProt entry; tags and fusion partners are left off. Residues count along the entry.
UniProt Q00610, residues 2-1675: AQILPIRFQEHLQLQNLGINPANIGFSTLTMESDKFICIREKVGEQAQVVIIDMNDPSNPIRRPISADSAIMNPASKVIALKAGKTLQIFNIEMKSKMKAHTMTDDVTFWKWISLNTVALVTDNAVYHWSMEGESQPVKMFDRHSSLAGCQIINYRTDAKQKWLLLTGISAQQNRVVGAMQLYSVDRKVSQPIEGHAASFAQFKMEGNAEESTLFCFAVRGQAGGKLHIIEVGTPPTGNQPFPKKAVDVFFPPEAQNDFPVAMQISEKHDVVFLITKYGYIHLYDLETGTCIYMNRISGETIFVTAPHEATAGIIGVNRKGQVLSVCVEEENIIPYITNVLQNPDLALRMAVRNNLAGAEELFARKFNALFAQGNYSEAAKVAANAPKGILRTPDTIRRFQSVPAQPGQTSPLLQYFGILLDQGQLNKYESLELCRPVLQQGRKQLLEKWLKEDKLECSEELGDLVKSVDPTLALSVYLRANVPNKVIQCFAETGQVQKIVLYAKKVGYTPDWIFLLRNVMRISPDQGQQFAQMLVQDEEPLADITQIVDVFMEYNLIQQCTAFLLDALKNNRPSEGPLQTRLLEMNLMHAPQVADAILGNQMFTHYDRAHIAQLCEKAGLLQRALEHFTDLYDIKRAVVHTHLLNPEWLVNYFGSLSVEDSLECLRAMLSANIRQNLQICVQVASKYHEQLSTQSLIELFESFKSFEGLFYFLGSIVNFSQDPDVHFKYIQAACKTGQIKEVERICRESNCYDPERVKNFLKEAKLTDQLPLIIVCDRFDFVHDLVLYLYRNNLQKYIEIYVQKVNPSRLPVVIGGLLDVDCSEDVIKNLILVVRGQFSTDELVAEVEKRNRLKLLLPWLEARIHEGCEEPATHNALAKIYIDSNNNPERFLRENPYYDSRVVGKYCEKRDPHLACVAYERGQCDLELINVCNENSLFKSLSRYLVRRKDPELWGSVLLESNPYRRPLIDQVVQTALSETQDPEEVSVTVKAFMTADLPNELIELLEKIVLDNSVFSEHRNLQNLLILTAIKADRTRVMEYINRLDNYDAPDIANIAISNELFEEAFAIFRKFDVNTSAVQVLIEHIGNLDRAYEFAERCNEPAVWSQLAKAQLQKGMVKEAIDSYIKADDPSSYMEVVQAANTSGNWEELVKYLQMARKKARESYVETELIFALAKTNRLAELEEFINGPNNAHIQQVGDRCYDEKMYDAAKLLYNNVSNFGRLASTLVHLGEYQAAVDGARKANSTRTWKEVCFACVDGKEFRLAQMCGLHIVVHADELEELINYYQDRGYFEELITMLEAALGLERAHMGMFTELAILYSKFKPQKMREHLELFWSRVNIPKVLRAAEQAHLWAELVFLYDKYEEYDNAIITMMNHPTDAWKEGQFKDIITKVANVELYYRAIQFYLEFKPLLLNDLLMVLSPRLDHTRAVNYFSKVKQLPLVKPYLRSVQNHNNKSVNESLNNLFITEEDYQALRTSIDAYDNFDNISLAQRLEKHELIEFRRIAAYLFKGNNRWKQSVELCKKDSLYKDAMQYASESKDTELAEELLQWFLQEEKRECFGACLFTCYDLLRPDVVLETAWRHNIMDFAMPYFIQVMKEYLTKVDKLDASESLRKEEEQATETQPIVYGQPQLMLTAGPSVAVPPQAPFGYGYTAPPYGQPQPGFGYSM

Substance: GST fusion protein of the CIC-4 amino-terminal domain (CIC-4-NT, human aa 1-67) (from UniProt P08515 1-218; P51793 1-67)
- binding: binds

Reference: patent EP2420830B1
